PMC10247384
No constants are given. Whether binding was seen depends on the method and setting. In cells and extracts the contact can be indirect. A result given as binding can be weak or reduced; the word gives no strength.

By UniProt entry, the sequences of proteins in these tests, tags left out.
UniProt Q9H6L5: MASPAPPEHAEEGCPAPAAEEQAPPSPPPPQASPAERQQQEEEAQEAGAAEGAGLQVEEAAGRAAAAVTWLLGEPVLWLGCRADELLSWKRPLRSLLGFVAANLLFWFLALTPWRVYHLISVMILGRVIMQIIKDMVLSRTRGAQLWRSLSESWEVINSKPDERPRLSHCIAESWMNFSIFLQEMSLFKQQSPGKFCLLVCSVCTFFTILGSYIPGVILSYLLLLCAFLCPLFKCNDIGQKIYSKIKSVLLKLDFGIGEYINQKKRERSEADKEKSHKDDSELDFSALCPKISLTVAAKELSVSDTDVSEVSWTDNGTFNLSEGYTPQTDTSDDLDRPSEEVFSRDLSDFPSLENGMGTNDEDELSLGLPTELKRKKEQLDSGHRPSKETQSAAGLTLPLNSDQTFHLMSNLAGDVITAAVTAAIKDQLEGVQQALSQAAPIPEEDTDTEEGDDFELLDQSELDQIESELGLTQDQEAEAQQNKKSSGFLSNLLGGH

Key:
[1] = biological target: green fluorescent protein (GFP)-tagged FAM134B (UniProt Q9H6L5); assay: co-IP; transiently expressed HA–ARL6IP1 or HA–ARL6IP1-7KR with GFP–FAM134B; in Fig. 4h with co-expressed AMFR–Flag or AMFR-RINGmut–Flag; immunoblot
[2] = biological target: HA–ARL6IP1-7KR (UniProt Q15041); assay: co-IP; HEK293T cells transfected with HA-tagged ARL6IP1 or FAM134B constructs; WT and variant proteins pulled down, the endogenous binding partner detected by immunoblot

binding [1]	binding [2]	Substance
binds	–	HA–ARL6IP1-7KR (from UniProt Q15041)
–	binds	endogenous FAM134B (human cells) (from UniProt Q9H6L5 1-497)
